Literature values as cited in patent US4983593A, “Pharmaceutical composition of dihydropyridine compound” (priority 1988, dated 1991).

Settings: background; cited from earlier work

## COC(=O)C1=C(C)NC(C)=C(C(=O)OC)C1c1ccccc1[N+](=O)[O-] [nifedipine]
  Absorption through gastrointestinal tracts (in words): can not be absorbed through gastrointestinal tracts in a sufficient amount
